This note sets out measurements from patent US6458926.

Protein sequences, listed by entry. Tags and fused reporters are not part of them.
UniProt P19793: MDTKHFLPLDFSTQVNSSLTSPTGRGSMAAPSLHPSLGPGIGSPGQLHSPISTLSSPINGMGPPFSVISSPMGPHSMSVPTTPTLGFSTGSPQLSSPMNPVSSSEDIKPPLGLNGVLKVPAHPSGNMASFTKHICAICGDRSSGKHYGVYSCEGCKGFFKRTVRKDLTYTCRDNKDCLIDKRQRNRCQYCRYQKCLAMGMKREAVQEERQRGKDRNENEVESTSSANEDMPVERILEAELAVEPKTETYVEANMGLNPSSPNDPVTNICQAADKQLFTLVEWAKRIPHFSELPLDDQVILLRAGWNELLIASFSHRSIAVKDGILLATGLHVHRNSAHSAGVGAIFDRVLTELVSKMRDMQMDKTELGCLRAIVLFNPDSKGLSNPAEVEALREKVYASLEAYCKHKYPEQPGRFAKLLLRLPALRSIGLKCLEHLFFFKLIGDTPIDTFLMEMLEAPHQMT

The target in this test is GST-hRXRα (bacterially expressed glutathione-S-transferase-RXRα fusion protein) (human) (UniProt P19793). The test is described as follows: glutathione-sepharose pull-down of GST-RXR with purified T3R, read out by bound [125I]T3.

Results are given in words; binding and its absence hold for the method and conditions named. In cells and extracts the contact can be indirect. Some entries that bind do so weakly or less than the wild type.

B1: chicken T3Rα1 (receptor, UniProt P04625 1-408, looked up)
chain: MEQKPSTLDPLSEPEDTRWLDGKRKRKSSQCLVKSSMSGYIPSYLDKDEQCVVCGDKATGYHYRCITCEGCKGFFRRTIQKNLHPTYSCKYDGCCVIDKITRNQCQLCRFKKCISVGMAMDLVLDDSKRVAKRKLIEENRERRRKEEMIKSLQHRPSPSAEEWELIHVVTEAHRSTNAQGSHWKQKRKFLPEDIGQSPMASMPDGDKVDLEAFSEFTKIITPAITRVVDFAKKLPMFSELPCEDQIILLKGCCMEIMSLRAAVRYDPESETLTLSGEMAVKREQLKNGGLGVVSDAIFDLGKSLSAFNLDDTEVALLQAVLLMSSDRTGLICVDKIEKCQETYLLAFEHYINYRKHNIPHFWPKLLMKVTDLRMIGACHASRFLHMKVECPTELFPPLFLEVFEDQEV
Consider B1, for which the binding entry is on record as “binds”.
